# According to patent EP0406111A1, “Substituted arylamines and heteroarylamines, process for their preparation and pharmaceutical composition containing them” (SOCIETE DE CONSEILS DE […] D'APPLICATIONS SCIENTIFIQUES …, priority 1989, dated 1991):
# Molecular target: récepteur de la PCP
# Assay: Competition binding at the (3H)TCP sites on rat brain homogenates (Example 36)
# Conditions: 1 nM (3H)TCP, 30 min at 25°C
# From the text: Exemple 36 : Affinité des composés pour les sites de liaison de la (³H)TCP sur les homogénats de cerveaux de rats.
# Dans cet essai on mesure les affinités des composés pour le récepteur de la PCP par des expériences de compétition sur des homogénats de cerveaux de rats. Le ligand radioactif utilisé est la (³H)TCP à une activité spécifique de 62 Ci/mmol (Service des Molécules Marquées, CEA Saclay France).
# Les cerveaux de rats (sans le cervelet et le tronc cérébral) sont homogénéisés à l'ultra turax dans 20 volumes de tampon Hepes-Tris 50 mM, pH 7,7. Après centrifugation pendant 30 min à 15000 g le culot est repris dans le même volume de tampon et recentrifugé dans les mêmes conditions. Le culot final est repris dans du tampon Hepes-Tris 50 mM, pH 7,7 de façon à obtenir une concentration en protéine de 6 à 8 mg/ml.
# Les expériences de compétition sont réalisées en incubant pendant 30 min les membranes (concentration finale en protéine : 0,6 à 0,8 mg/ml) en milieu tampon 5 mM Hepes-Tris, pH 7,7 à 25°C, en présence d'une concentration fixe de ligand tritié (1 nM)et de concentrations croissantes de composés à tester. Trois échantillons de 600 µL sont ensuite filtrés sur filtres de fibres de verre GF/B prétraités par du PEI (polyéthylénimine) à 0,1%. […]
smiles,measurement,value
"CN1Cc2c(N)cccc2C(c2ccccc2)C1 (stereo not shown) [Nomifensine, amino-8 méthyl-2 phényl-4 tétrahydro- 1,2,3,4 isoquinoline, reference compound]",IC50,95 µM
